The text below walks through data of PubChem BioAssay AID2685 (National Center for Advancing Translational Sciences (NCATS), 2010).

As usually defined, the AC50 is the midpoint of the concentration-response curve, whichever way the signal moves.

The other results are listed elsewhere or left out. The main result of the screen is listed elsewhere. These columns were measured beside it and carry no call. Compounds called inactive in the main read-out are mostly missing here. The note in brackets gives the kind of curve behind each potency; many fits are weak.

The nature of this experiment: qHTS Assay for Lipid Storage Modulators in Drosophila S3 Cells.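 On cell number change: cells counted by Cell Tracker Red CMTPX staining in the red channel.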 Particulars: BODIPY lipid droplet fluorescence, 18-24 h; for cell number change: measured here: cell count max response, cells fed with added oleic acid. The method, boiled down: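 Laser-scanning cytometry quantifies lipid droplet accumulation (500–530 nm total intensity; droplet/cell object ratio) in oleic acid-fed (400 uM added) Drosophila S3 cells treated with a concentration series. 20 uM Triacsin C defined 100% inhibition.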
For orientation: In qHTS, concentration-response curves come from the screen itself.

[1] abbreviates: measured here: lipid fluorescence (Fed channel) AC50, cells fed with added oleic acid.
Where [2] appears, read: measured here: cell number channel AC50, cells fed with added oleic acid.

Regarding `Cn1c(=O)oc2cc(S(=O)(=O)NCCC(=O)NCCc3ccccc3)ccc21`, the cell number change was -37.7%. The same measure, in the same setting: the figure for `CC(=O)N1CCN=C1SCc1cccc(C)c1` is 1.18%; for `CCOc1ccc(-n2c(Cc3cc(=O)[nH]c(=O)[nH]3)nnc2SCC(=O)OC)cc1` it is 13.8%. Regarding `c1ccc2c(c1)CCCc1cc(NCCN3CCOCC3)nnc1-2`, the cell number change worked out at 21.5%. Moreover, under setting [1], the AC50 is 29.1 µM [rising, single point]. Consider `COCCN(Cc1cccs1)S(=O)(=O)c1csc(C(N)=O)c1`, for which the cell number change is -35.2%. Also, the AC50 under setting [2] was 29.1 µM [falling, single point]. For the compound `CS(=O)(=O)c1ccc(Cl)c(NC(=O)c2cccc(-n3cnnn3)c2)c1`, the AC50 under setting [2] was 6.51 µM [rising, single point]. As to `O=c1c2ccccc2nc2n1C(CSCc1ccccc1)CS2` (centres undefined), the AC50 under setting [1] was 29.1 µM [falling, single point]. For `CN1CCN(C(=O)C2=C[C@@H](C3CC3)C[C@@H](OCc3ccc(CO)cc3)O2)CC1`, the AC50 under setting [1] is 0.00461 µM [falling, full curve, poor fit].

On to `Cc1cc(NC(=O)CC(F)(F)F)n(-c2ccccc2)n1`, for which the cell number change was -23.8%. As for `NC(=O)c1ccccc1NC(=O)CS(=O)(=O)Cc1ccccc1`, the cell number change was -5.39%. Also, under setting [1], the AC50 was 6.51 µM [rising, single point].

Consider `C=CCNc1nc(Nc2ccc(OC)cc2)nc(OC)n1`, for which the cell number change came out at 71.5%. In addition, under setting [2], the AC50 was 6.51 µM [rising, partial curve]. Consider `CCOC(=O)c1ccc(N2NC(=O)/C(=C/c3ccc(OC(=O)c4ccco4)c(OC)c3)C2=O)cc1`, for which the cell number change was -5.39%.

As for `O=C1c2oc3ccc(Cl)cc3c(=O)c2C(c2ccccn2)N1CCCN1CCOCC1` (centres undefined), the cell number change was -6.86%. Under setting [2], the AC50 was 0.259 µM [falling, partial curve, poor fit]. Further, under setting [1], the AC50 was 0.651 µM [falling, full curve, poor fit]. In the case of `CC1(C)NC(=O)N(CCCCOc2ccc(Cl)cc2)C1=O`, the AC50 under setting [1] was 6.51 µM [falling, single point]. Turning to `CCN(Cc1nc2cc(Cl)ccc2c(=O)[nH]1)C(=O)c1cccc(OCc2c(C)noc2C)c1`, the cell number change is -6.63%. Besides, the AC50 under setting [1] was 0.00461 µM [falling, full curve, poor fit]. With `CCc1nnc(NS(=O)(=O)c2ccc(NC(=S)Nc3ccc(F)cc3)cc2)s1`, the cell number change was found to be 6.05%. Also, under setting [2], the AC50 is 6.51 µM [rising, single point]. In addition, under setting [1], the half-maximal activity concentration (AC50) was 14.6 µM [rising, single point]. In the case of `CCOC(=O)C1=C(C)NC(=O)NC1c1c(O)ccc2ccccc12` (centres undefined), the AC50 under setting [1] was 14.6 µM [falling, partial curve, poor fit]. On to `CCOc1ccc(N(CC(=O)NC2CCCCC2)C(=O)CCC(=O)Nc2nccs2)cc1`, for which the cell number change is -5.13%. Moreover, the AC50 under setting [1] is 0.116 µM [falling, single point]. With `CCn1c(O)c(C=NCc2cccs2)c(=O)n(CC)c1=S`, the cell number change worked out at 9.49%. As for `Cc1ccc(S(=O)(=O)NC(=O)NCc2ccc(Cl)cc2)cc1`, the cell number change was -2.3%. For the same compound, the AC50 under setting [2] is 0.82 µM [rising, partial curve, poor fit]. Under setting [1], the AC50 is 0.00411 µM [rising, full curve, poor fit].

With `CCN(CC)S(=O)(=O)c1ccc(N2CCOCC2)c(NC(=O)c2ccccc2)c1`, the cell number change stood at 26.4%. Moreover, under setting [1], the AC50 was 6.51 µM [rising, single point].

As to `CCc1cccc(NC(=O)CCS(=O)(=O)c2cc3c(cc2C)NC(=O)CO3)c1`, the cell number change was -13.3%. For the compound `O=C(O)CCn1cc(/C=C2/NC(=S)N(c3ccccc3)C2=O)c(-c2ccccc2)n1`, the cell number change was 33.9%. The AC50 under setting [2] is 0.651 µM [rising, full curve]. `Cc1cc(C)nc(N/N=C/c2c(CO)cnc(C)c2O)n1`: the cell number change was -17.1%. In addition, the AC50 under setting [1] was 0.259 µM [rising, full curve]. Regarding `CCOC(=O)c1c(-c2ccccc2)oc2ccc(OCC(=O)NN)cc12`, the cell number change was -25.2%. Moreover, the AC50 under setting [1] is 29.1 µM [falling, single point]. With `Cc1cccc(C)c1NC(=O)NC1(C(=O)N2CCN3CCCC3C2)CCCCC1` (centres undefined), the cell number change came to 15.5%.

For `COc1ccc(-n2nc(C(=O)NCC(=O)N3CCN(c4ccccc4F)CC3)c3ccccc3c2=O)cc1`, the cell number change was determined as 4.05%. Turning to `Cc1cccc(C(=O)O/N=C2\CCSc3ccc(C)cc32)c1`, the AC50 is, setting by setting: under setting [2], 0.146 µM [falling, full curve, poor fit]; under setting [1], 23.1 µM [falling, partial curve]. Consider `CCOC(=O)/C=C1\SCC(=O)N1CC(=O)NC(c1ccccc1)c1ccccc1`, for which the cell number change was -1.1%. Further, the AC50 under setting [1] is 20.6 µM [falling, single point]. Consider `COc1ccc2[nH]c(C(=O)O)c(CCNC(=O)/C=C/c3ccc(O)c(OC)c3)c2c1`, for which the cell number change was -22.8%. Also, the AC50 under setting [1] is 3.26 µM [rising, single point].

With `CCOC(=O)c1c(C)[nH]c(C(=O)COC(=O)C2CC2C)c1C` (centres undefined), the AC50 under setting [2] was 3.66 µM [rising, partial curve].

In the case of `COc1cc(C(=O)Oc2cccc(/C=N/NC(=O)c3cc(C)[nH]n3)c2)cc(OC)c1OC`, the cell number change is 19.7%. Also, the AC50 under setting [1] was 6.51 µM [rising, partial curve, poor fit]. For the compound `COCCNS(=O)(=O)c1cc(OC)c(C)cc1C`, the cell number change turned out to be 27%. Moreover, the AC50 under setting [1] was 5.17 µM [rising, partial curve, poor fit].

On to `COc1ccc(Oc2cc(NN3CCCCC3)c([N+](=O)[O-])cc2[N+](=O)[O-])cc1OC`, for which the cell number change was 19.1%. The AC50 under setting [1] is 29.1 µM [rising, single point]. With `COc1ccc(NC(=O)CCNS(=O)(=O)c2cc(Br)cnc2N)cc1OC`, the cell number change was -17.3%. The AC50 under setting [1] was 0.731 µM [falling, full curve]. For the compound `CC(C)Cn1c(N)c(C(=O)COC(=O)c2ccc3c(c2)OCCO3)c(=O)n(C)c1=O`, the AC50 by setting is: under setting [2], 2.06 µM [rising, partial curve]; under setting [1], 0.58 µM [rising, single point]. `O=C(O)c1cccc(CSc2ncccn2)c1`: the cell number change was -8.28%. Also, the AC50 under setting [1] is 5.8 µM [falling, full curve]. `O=C(O)COc1ccc(-c2nnn(Cc3ccccc3F)n2)cc1`: the cell number change was -4.73%. In addition, the AC50 under setting [1] is 14.6 µM [falling, single point].

As for `Brc1cc2c(cc1Br)OCCOCCOCCOCCO2`, the cell number change came to 10.4%. In addition, the AC50 under setting [2] was 2.06 µM [rising, partial curve]. Moreover, under setting [1], the AC50 was 0.116 µM [rising, full curve, poor fit]. As to `CC(C)c1ccc(S(=O)(=O)N2CCN(C(=O)CCNS(=O)(=O)c3ccccc3F)CC2)cc1`, the cell number change was 27.6%. Moreover, under setting [1], the AC50 was 18.4 µM [rising, single point].
